# Assay results from publication PMC4669772, “The conserved Trp114 residue of thioredoxin reductase 1 has a redox sensor-like function triggering oligomerization and crosslinking upon oxidative stress related to cell death” (Cell Death & Disease, 2015).
# Results are given in words; binding and its absence hold for the method and conditions named. For some of these results: In cells and extracts the contact can be indirect. Some results given as binding are weak or reduced against the parent protein; the word gives no strength. For some of these results: Where a sequence is shown, tags or fusion partners need not be part of it.
# Legend:
# [1] = target: thioredoxin reductase 1 (TrxR1), endogenous in HCT116 cells (human (endogenous in HCT116)) (UniProt Q16881); experiment: SEC; gel filtration of crude protein lysates of HCT116 cells (control, RITA, NDGA+RITA); fractions analysed for TrxR activity and by western blot of reducing SDS-PAGE
# [2] = target: thioredoxin reductase 1 (TrxR1), endogenous in HCT116 cells (human (endogenous in HCT116)) (UniProt Q16881); experiment: cross-linking; covalent ≈110 kDa TrxR1 species resistant to reducing SDS-PAGE, formed in HCT116 cells treated with 1 μM RITA for 8 h; western blot of lysates; immunoprecipitation with anti-TrxR1 19A1, Coomassie-stained band, tryptic digest and MALDI-TOF-MS
# [3] = target: thioredoxin reductase 1 (TrxR1), endogenous in HCT116 cells (human (endogenous in HCT116)) (UniProt Q16881); experiment: cross-linking; covalent crosslinking of TrxR1 subunits on treatment of cells with iron-triapine; data not shown
# [4] = target: N-terminally FLAG-tagged human wild-type TrxR1 (human) (UniProt Q16881); experiment: cross-linking; covalently linked TrxR1 species on reducing SDS-PAGE of lysates of HCT116 cells transfected with FLAG-tagged human TrxR1 variants, treated with 1 μM RITA for 8 h (with or without 50 μM NDGA); immunoblot with anti-TrxR1 or anti-FLAG
binding [1],binding [2],binding [3],binding [4],Binder
binds,binds,binds,,"thioredoxin reductase 1 (TrxR1), endogenous in HCT116 cells (enzyme, UniProt Q16881-5 1-499, selenocysteine (Sec, U) at 498) MNGPEDLPKSYDYDLIIIGGGSGGLAAAKEAAQYGKKVMVLDFVTPTPLGTRWGLGGTCVNVGCIPKKLMHQAALLGQALQDSRNYGWKVEETVKHDWDRMIEAVQNHIGSLNWGYRVALREKKVVYENAYGQFIGPHRIKATNNKGKEKIYSAERFLIATGERPRYLGIPGDKEYCISSDDLFSLPYCPGKTLVVGASYVALECAGFLAGIGLDVTVMVRSILLRGFDQDMANKIGEHMEEHGIKFIRQFVPIKVEQIEAGTPGRLRVVAQSTNSEEIIEGEYNTVMLAIGRDACTRKIGLETVGVKINEKTGKIPVTDEEQTNVPYIYAIGDILEDKVELTPVAIQAGRLLAQRLYAGSTVKCDYENVPTTVFTPLEYGACGLSEEKAVEKFGEENIEVYHSYFWPLEWTIPSRDNNKCYAKIICNTKDNERVVGFHVLGPNAGEVTQGFAAALKCGLTKKQLDSTIGIHPVCAEVFTTLSVTKRSGASILQAGCUG"
,,,binds,"N-terminally FLAG-tagged human wild-type TrxR1 (enzyme, UniProt Q16881-5 1-499, selenocysteine (Sec, U) at 498) MNGPEDLPKSYDYDLIIIGGGSGGLAAAKEAAQYGKKVMVLDFVTPTPLGTRWGLGGTCVNVGCIPKKLMHQAALLGQALQDSRNYGWKVEETVKHDWDRMIEAVQNHIGSLNWGYRVALREKKVVYENAYGQFIGPHRIKATNNKGKEKIYSAERFLIATGERPRYLGIPGDKEYCISSDDLFSLPYCPGKTLVVGASYVALECAGFLAGIGLDVTVMVRSILLRGFDQDMANKIGEHMEEHGIKFIRQFVPIKVEQIEAGTPGRLRVVAQSTNSEEIIEGEYNTVMLAIGRDACTRKIGLETVGVKINEKTGKIPVTDEEQTNVPYIYAIGDILEDKVELTPVAIQAGRLLAQRLYAGSTVKCDYENVPTTVFTPLEYGACGLSEEKAVEKFGEENIEVYHSYFWPLEWTIPSRDNNKCYAKIICNTKDNERVVGFHVLGPNAGEVTQGFAAALKCGLTKKQLDSTIGIHPVCAEVFTTLSVTKRSGASILQAGCUG"
